Assay results from patent US20150093383A1 (ONO PHARMACEUTICAL, published 2015).
These are yes or no findings as the source states them, for the method shown. In cells and extracts the contact can be indirect. A result given as binding can be weak or reduced; the word gives no strength.

Molecular target: FcR-hBIR1 (wt) chimeric protein (mouse FcγRIIB / human BIR1 chimera)
Assay: co-immunoprecipitation with 2.4G2 after crosslinking of the chimera with BCR by intact antibody, Western blotting

binding: binds
B1: SHIP-1 (enzyme, UniProt Q9ES52 1-1191, looked up)
chain: MPAMVPGWNHGNITRSKAEELLSRAGKDGSFLVRASESIPRAYALCVLFRNCVYTYRILPNEDDKFTVQASEGVPMRFFTKLDQLIDFYKKENMGLVTHLQYPVPLEEEDAIDEAEEDTVESVMSPPELPPRNIPMSAGPSEAKDLPLATENPRAPEVTRLSLSETLFQRLQSMDTSGLPEEHLKAIQDYLSTQLLLDSDFLKTGSSNLPHLKKLMSLLCKELHGEVIRTLPSLESLQRLFDQQLSPGLRPRPQVPGEASPITMVAKLSQLTSLLSSIEDKVKSLLHEGSESTNRRSLIPPVTFEVKSESLGIPQKMHLKVDVESGKLIVKKSKDGSEDKFYSHKKILQLIKSQKFLNKLVILVETEKEKILRKEYVFADSKKREGFCQLLQQMKNKHSEQPEPDMITIFIGTWNMGNAPPPKKITSWFLSKGQGKTRDDSADYIPHDIYVIGTQEDPLGEKEWLELLRHSLQEVTSMTFKTVAIHTLWNIRIVVLAKPEHENRISHICTDNVKTGIANTLGNKGAVGVSFMFNGTSLGFVNSHLTSGSEKKLRRNQNYMNILRFLALGDKKLSPFNITHRFTHLFWLGDLNYRVELPTWEAEAIIQKIKQQQYSDLLAHDQLLLERKDQKVFLHFEEEEITFAPTYRFERLTRDKYAYTKQKATGMKYNLPSWCDRVLWKSYPLVHVVCQSYGSTSDIMTSDHSPVFATFEAGVTSQFVSKNGPGTVDSQGQIEFLACYATLKTKSQTKFYLEFHSSCLESFVKSQEGENEEGSEGELVVRFGETLPKLKPIISDPEYLLDQHILISIKSSDSDESYGEGCIALRLETTEAQHPIYTPLTHHGEMTGHFRGEIKLQTSQGKMREKLYDFVKTERDESSGMKCLKNLTSHDPMRQWEPSGRVPACGVSSLNEMINPNYIGMGPFGQPLHGKSTLSPDQQLTAWSYDQLPKDSSLGPGRGEGPPTPPSQPPLSPKKFSSSTANRGPCPRVQEARPGDLGKVEALLQEDLLLTKPEMFENPLYGSVSSFPKLVPRKEQESPKMLRKEPPPCPDPGISSPSIVLPKAQEVESVKGTSKQAPVPVLGPTPRIRSFTCSSSAEGRMTSGDKSQGKPKASASSQAPVPVKRPVKPSRSEMSQQTTPIPAPRPPLPVKSPAVLQLQHSKGRDYRDNTELPHHGKHRQEEGLLGRTAMQ
